These are yes or no findings as the source states them, for the method shown. Binding seen in cells or lysates may run through a third protein. Some entries that bind do so weakly or less than the wild type.
Target: recombinant flagellar hook protein FlgE of Pseudomonas aeruginosa PAO1 (Pseudomonas aeruginosa PAO1) (UniProt Q9I4P9)
Assay: pull-down; FlgE- or FlgEM-saturated His-agarose beads incubated with the same amount of HCEC membrane proteins at 4 °C for 8 h; PBS washes; beads boiled in SDS loading buffer; Western blot with anti-CAV1 and anti-His; unconjugated resin as control; only the target purified

By UniProt entry, the sequences of proteins in these tests, tags left out.
UniProt Q9I4P9: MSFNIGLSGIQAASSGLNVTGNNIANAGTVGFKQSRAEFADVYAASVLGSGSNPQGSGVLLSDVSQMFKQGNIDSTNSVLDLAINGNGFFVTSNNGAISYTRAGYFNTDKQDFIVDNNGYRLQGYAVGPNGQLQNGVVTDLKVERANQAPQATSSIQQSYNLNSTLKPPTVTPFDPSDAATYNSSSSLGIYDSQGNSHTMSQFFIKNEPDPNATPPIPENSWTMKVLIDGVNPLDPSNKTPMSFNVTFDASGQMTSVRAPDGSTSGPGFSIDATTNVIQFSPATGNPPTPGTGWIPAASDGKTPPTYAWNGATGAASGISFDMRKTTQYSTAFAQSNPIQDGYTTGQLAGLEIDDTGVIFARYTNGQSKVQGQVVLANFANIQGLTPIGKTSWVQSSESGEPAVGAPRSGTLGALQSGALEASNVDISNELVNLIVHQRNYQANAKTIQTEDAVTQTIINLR
UniProt Q03135: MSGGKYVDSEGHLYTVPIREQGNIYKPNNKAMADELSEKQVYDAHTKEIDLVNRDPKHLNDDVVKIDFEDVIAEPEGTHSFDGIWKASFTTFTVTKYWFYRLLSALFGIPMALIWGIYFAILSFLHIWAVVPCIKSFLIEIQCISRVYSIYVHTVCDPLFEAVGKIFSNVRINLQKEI

Q: Caveolin-1 (from UniProt Q03135 1-178) was tested. Which binding did it give?
A: The binding was “binds”.

Source: paper PMC5431167
